# In patent US9745288B2, “Compounds and methods for treating cancer by inhibiting the urokinase receptor” (Indiana University Research and Technology Corporation, priority 2011, dated 2017):
# “Also recorded” adds a separate entry of the source. Not every entry of the source has a single result; some have several. This list holds those alone. An entry can have further records. Results that share an entry differ for a reason that is not stated; they may come from other doses, times, organisms or constructs than stated.
# Tested on: MMP-9
# Test: Gelatin zymography of MDA-MB-231 conditioned medium
# Format: cell-based, human
smiles,measurement,value
Cc1ccc(-n2ncc(C(=O)Nc3ccccc3OCc3ccccc3)c2C2CCNCC2)cc1C,MMP-9 activity in gelatin zymography,impairment of matrix metalloproteinase (MMP-9) activity; also recorded: increasing inhibition of MMP-9
